The text below walks through data of PubChem BioAssay AID493014 (National Center for Advancing Translational Sciences (NCATS), 2011).

The assay is described as follows: qHTS Assay to Find Inhibitors of Chronic Active B-Cell Receptor Signaling. Particulars: ABC-DLBCL IkBa-CBG/CBR reporter, luminescence ratio (green luciferase fused to IkBa over red control in TMD8 lymphoma cells), 4 h. Summed up: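 Concentration-response series (up to 46 uM) were applied to TMD8 dual-reporter cells for 4 h at 37C with doxycycline. Green/red ratio, after filter-overlap correction, defined %Activity; red signal alone was normalised to basal cells and zero luminescence.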

Where [1] appears, read: measured here: CBR red luminescence, cell number.

Some of the results follow. Further columns of the screen follow, without active or inactive calls. Compounds called inactive in the main read-out are mostly missing here. Potencies come from curve fits of mixed quality, noted in brackets.

With `CC(C(=O)Nc1ccc(Cl)cc1)N(C)Cc1cccs1` (centres undefined), under setting [1], the half-maximal activity concentration (AC50) (commonly the concentration at which the activity in the assay is half-maximal) was 2.82 µM [rising, full curve, poor fit].

With `C=CCn1c(SCC(=O)N2CCCC2)nc2c([nH]c3ccccc32)c1=O`, the half-maximal activity concentration (AC50) under setting [1] was 0.178 µM [falling, full curve, poor fit].

With `N#Cc1c(-c2ccc(Cl)cc2)c2c([nH]c1=S)CCCC2`, the AC50 under setting [1] was 6.31 µM [rising, single point].

As to `CCCn1c(=O)c2c(nc3n2CCCN3CCc2ccc(OC)c(OC)c2)n(C)c1=O`, the AC50 under setting [1] is 7.08 µM [falling, partial curve].

In the case of `CC(/C=N/NC(=O)c1nn(C)c(C)c1Br)=C\c1ccccc1`, the AC50 under setting [1] was 0.731 µM [rising, full curve].

In the case of `O=C(COc1ccc(Br)cc1)Nc1ccncc1`, the concentration at half-maximal activity (AC50) under setting [1] is 6.51 µM [falling, single point].

As for `CCN(CC(=O)NCc1ccc(Cl)cc1)C(=O)c1cnc(Cl)c(Cl)c1`, the half-maximal activity concentration (AC50) under setting [1] is 35.5 µM [falling, partial curve, poor fit].

As for `C=CCn1c(SCC(=O)c2[nH]c(C)c(C(=O)OCC)c2C)nc2scc(-c3ccc(OC)cc3)c2c1=O`, the AC50 under setting [1] is 3.26 µM [rising, full curve, poor fit].

As for `O=C1NC2(CCCc3ccccc32)C(=O)N1Cc1nnc(-c2ccccc2Br)o1` (centres undefined), the AC50 under setting [1] is 0.1 µM [falling, full curve, poor fit].

On to `CC1CCC/C(=N\NC(=O)COc2ccccc2Cl)C1` (centres undefined), for which the AC50 under setting [1] was 29.1 µM [rising, single point].

As for `Nc1nc(CCl)nc(Nc2ccc3ccccc3c2)n1`, the AC50 under setting [1] is 35.5 µM [falling, single point].

Turning to `CCOc1ccc(S(=O)(=O)N(C)c2ccc(OCC(=O)NCc3ccco3)cc2)cc1`, the AC50 under setting [1] is 5.8 µM [rising, partial curve, poor fit].

Take `COc1ccc(OCCN(C)Cc2ccccc2)cc1`: the AC50 under setting [1] was 6.51 µM [rising, single point].

Take `CCOC(=O)c1nc(NCc2ccccc2C)c2ccccc2n1`: the AC50 under setting [1] was 35.5 µM [rising, partial curve, poor fit].

In the case of `CS(=O)(=O)c1ccc(NC(=O)c2cccc(S(=O)(=O)N3CCN(Cc4ccccc4)CC3)c2)cc1`, the concentration at half-maximal activity (AC50) under setting [1] is 3.55 µM [falling, partial curve, poor fit].

Turning to `Cc1cc(C(=O)NCCC2=CCCCC2)c(C)o1`, the concentration at half-maximal activity (AC50) under setting [1] was 6.51 µM [falling, full curve, poor fit].

In the case of `Fc1ccc(OCc2nnc(-c3ccccc3Br)o2)c(Cl)c1`, the AC50 under setting [1] is 5.01 µM [rising, full curve, poor fit].

Turning to `CC(C)CNC(=O)/C(C#N)=C1\N=C(NC(=O)c2ccco2)c2ccccc21`, under setting [1], the AC50 was 15.8 µM [falling, single point].

Regarding `CC1CCCC(C)N1C(=O)c1cc(-c2cccs2)on1` (centres undefined), the AC50 under setting [1] is 23.1 µM [rising, partial curve, poor fit].

Consider `CC(C)NC(=O)Nc1ccc(Br)cc1Cl`, for which the half-maximal activity concentration (AC50) under setting [1] was 35.5 µM [rising, partial curve, poor fit].

For `CCCOc1ccc(C2NC(=S)NC(c3ccccc3)=C2C(=O)Nc2ccc(C)cc2)cc1OC` (centres undefined), under setting [1], the AC50 is 8.2 µM [falling, partial curve, poor fit].

On to `Cc1c(C(=O)N2CCC2)oc2ccc(Br)cc12`, for which the concentration at half-maximal activity (AC50) under setting [1] is 10.3 µM [rising, partial curve].

On to `O=C1CSC(=Nc2ccccc2[N+](=O)[O-])N1`, for which the AC50 under setting [1] was 35.5 µM [rising, single point].

For `COc1ccc(/C=N/NC(=O)CNC(=O)COc2ccccc2)cc1`, the AC50 under setting [1] is 6.51 µM [rising, single point].

For `CCCCOC(=O)Nc1cccc(C(C)=O)c1`, the half-maximal activity concentration (AC50) under setting [1] is 11.2 µM [rising, partial curve, poor fit].

With `N/C(Cc1ccc(Cl)cc1Cl)=N\OC(=O)c1ccccc1F`, the AC50 under setting [1] was 15.8 µM [rising, single point].

For `C=CC[n+]1c(-c2ccc(OCC)cc2)csc1NNC(=O)Nc1ccccc1`, the AC50 under setting [1] is 0.00651 µM [falling, full curve, poor fit].

On to `CC1c2cc3c(cc2CCN1C(=O)c1cccc(F)c1)OCCCO3` (centres undefined), for which, under setting [1], the AC50 is 22.4 µM [falling, single point].

Regarding `CC1(c2cccc(Br)c2)NC(=O)N(CC(=O)Nc2ccc(F)cc2)C1=O` (centres undefined), the AC50 under setting [1] is 11.2 µM [falling, single point].

As to `Cc1ccc(NC(=O)CNCc2cccs2)c(Br)c1`, under setting [1], the concentration at half-maximal activity (AC50) was 3.98 µM [rising, full curve, poor fit].

In the case of `CCc1ccc(Nc2nnc(SCC(=O)NC(=O)CN3CCCC3=O)s2)cc1`, the concentration at half-maximal activity (AC50) under setting [1] is 11.6 µM [falling, partial curve].

For `CC(C)(C)Nc1scc(-c2ccccc2)[n+]1-c1ccccc1`, the half-maximal activity concentration (AC50) under setting [1] is 8.91 µM [rising, partial curve, poor fit].

For the molecule `CCOc1ccc(NC(=O)CCC(=O)NNC(=O)c2ccco2)cc1`, the concentration at half-maximal activity (AC50) under setting [1] was 3.55 µM [rising, full curve, poor fit].

For the molecule `CCCCOc1ccc(-c2c(C#N)c(N)[nH]c(=S)c2C#N)cc1`, under setting [1], the half-maximal activity concentration (AC50) was 12.6 µM [rising, partial curve].

As to `COc1ccccc1C(=O)Nc1ccc(S(=O)(=O)N2CCOCC2)cc1`, under setting [1], the concentration at half-maximal activity (AC50) was 4.11 µM [falling, single point].

Regarding `NC(=O)c1ccc(N2CCCCC2)c(N2C(=O)CCC2=O)c1`, the concentration at half-maximal activity (AC50) under setting [1] was 12.6 µM [rising, single point].

Consider `CC(=O)N1CCN(S(=O)(=O)c2ccc3c(c2)CC(=O)N3)CC1`, for which the half-maximal activity concentration (AC50) under setting [1] is 29.1 µM [rising, single point].

For the molecule `COc1ccc(C(CC(=O)c2ccccc2)C2CCCCC2=O)cc1` (centres undefined), the AC50 under setting [1] was 2.91 µM [falling, single point].

In the case of `O=C(Nc1ccc(OCc2ccccc2)cc1)c1cccnc1`, the AC50 under setting [1] was 6.51 µM [rising, partial curve, poor fit].

`CC(C)(C)c1csc(NNC(=O)c2ccc(Br)cc2)n1`: the half-maximal activity concentration (AC50) under setting [1] was 35.5 µM [falling, single point].

On to `CC[C@]12c3[nH]c4cc(CCC(=O)N(C)C)ccc4c3CCN1C(=O)[C@@H](CC(=O)NCCCOC)C[C@@H]2C(=O)N1CCN(C(=O)c2ccco2)CC1`, for which, under setting [1], the AC50 was 16.4 µM [rising, partial curve, poor fit].

On to `CCCNc1c(NS(=O)(=O)c2ccc(NC(=O)CC)cc2)c(=O)oc2ccccc12`, for which, under setting [1], the AC50 was 10 µM [falling, partial curve, poor fit].

As to `COc1cc(NC(=O)c2ccnnc2)cc(C(=O)Nc2cccc(C(F)(F)F)c2)c1`, the AC50 under setting [1] is 11.2 µM [falling, partial curve].

With `CCn1c(/C=C/c2ccccc2C)nc2ccccc2c1=O`, under setting [1], the AC50 is 10 µM [falling, partial curve, poor fit].

On to `NS(=O)(=O)c1ccc(Nc2nc(-c3ccc4ccccc4c3)cs2)cc1`, for which the half-maximal activity concentration (AC50) under setting [1] is 20.6 µM [rising, partial curve].

Regarding `COc1ccccc1N1CCN(C(=O)C2CCN(S(=O)(=O)c3ccc4c(c3)CC(C)N4C(=O)C3CC3)CC2)CC1` (centres undefined), the AC50 under setting [1] was 35.5 µM [falling, single point].

`O=C(O)c1cccc(CSc2nnc(-c3ccc(Cl)cc3)o2)c1`: under setting [1], the AC50 was 14.1 µM [falling, partial curve, poor fit].

As for `COc1ccc(Nc2sc(C(=O)Nc3cccc(Cl)c3)c(N)c2C(=O)Nc2ccccc2OC)cc1`, the AC50 under setting [1] is 16.4 µM [falling, partial curve] and the AC50 (measured here: IkBa-CBG green luminescence) is 16.4 µM [rising, single point].

With `Cn1ccnc1C(O)c1cc(C(C)(C)C)c(O)c(C(C)(C)C)c1` (centres undefined), under setting [1], the AC50 is 11.2 µM [falling, partial curve].

As to `CC(=O)c1cc2c(cc1NC(=O)Cn1nc(-c3ccc(C)cc3)ccc1=O)OCO2`, the AC50 under setting [1] was 0.2 µM [rising, full curve, poor fit].

Turning to `CCCCNc1ncnc2c1cnn2-c1ccc(C)cc1C`, under setting [1], the AC50 was 1.3 µM [rising, partial curve, poor fit].

For the molecule `CCN(CC)Cc1c(O)ccc2occ(C(=O)c3ccccc3)c12`, the concentration at half-maximal activity (AC50) under setting [1] was 6.31 µM [rising, single point].

As to `CCOC(=O)c1[nH]c2ccc(OC)cc2c1NC(=O)CN1CCC2(CC1)OCCO2`, under setting [1], the half-maximal activity concentration (AC50) was 0.00651 µM [rising, full curve, poor fit].

As to `N/C(=N\NC(=O)c1cccs1)c1cc2ccccc2oc1=O`, the AC50 under setting [1] was 18.4 µM [falling, single point].

For `CC(C)CC(=O)NC(=S)NNC(=O)c1cccc([N+](=O)[O-])c1`, the AC50 under setting [1] is 6.31 µM [rising, single point].

In the case of `COc1cccc(/C=N/Nc2ncnc3scc(-c4ccccc4)c23)c1O`, the concentration at half-maximal activity (AC50) under setting [1] was 0.92 µM [falling, full curve].

Regarding `Cc1ccccc1CSc1nnnn1-c1ccc(C(N)=O)cc1`, the concentration at half-maximal activity (AC50) under setting [1] is 0.708 µM [rising, full curve, poor fit].

Consider `O=C1c2ccccc2-c2ccc(C(=O)N3CCOCC3)cc21`, for which, under setting [1], the AC50 was 32.6 µM [falling, single point].

As for `COc1ccc(-c2cc(=O)[nH][nH]2)cc1`, the AC50 under setting [1] was 9.2 µM [falling, partial curve, poor fit].

For the molecule `COc1ccc(-c2cc(-c3ccccc3O)[nH]n2)cc1`, the AC50 under setting [1] is 8.91 µM [falling, partial curve, poor fit].

For the molecule `COc1ccc(N2CC(C(=O)N(C)CC(=O)Nc3ccc(Cl)c(C(F)(F)F)c3)CC2=O)c(OC)c1` (centres undefined), under setting [1], the AC50 was 6.51 µM [rising, partial curve, poor fit].

Consider `C/C(Nc1ccc(F)cc1)=C(/C#N)C(N)=O`, for which the half-maximal activity concentration (AC50) under setting [1] is 0.251 µM [falling, full curve, poor fit].

As for `CC(C)(C)NC(=O)[C@@H]1C[C@@H]2CCCC[C@@H]2CN1C[C@@H](O)[C@H](Cc1ccccc1)NC(=O)[C@H](CC(N)=O)NC(=O)c1ccc2ccccc2n1`, under setting [1], the AC50 is 11.2 µM [falling, partial curve, poor fit].
